In the supplement of paper PMC10849652:
The other results are listed elsewhere or left out.

The chains behind the UniProt entries cited, without tags or fusion partners. Where a name states a change or a piece, a line headed by the entry shows the natural chain unless it says otherwise.
UniProt P10768: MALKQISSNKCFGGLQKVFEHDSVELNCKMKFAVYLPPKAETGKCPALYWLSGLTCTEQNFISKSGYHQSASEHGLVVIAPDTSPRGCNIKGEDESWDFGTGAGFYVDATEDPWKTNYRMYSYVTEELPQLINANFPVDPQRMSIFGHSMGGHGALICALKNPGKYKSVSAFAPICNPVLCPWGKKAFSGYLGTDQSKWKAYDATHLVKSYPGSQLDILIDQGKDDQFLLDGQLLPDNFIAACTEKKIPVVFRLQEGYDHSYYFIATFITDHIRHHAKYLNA
UniProt Q9NPD3, whole entry, looked up: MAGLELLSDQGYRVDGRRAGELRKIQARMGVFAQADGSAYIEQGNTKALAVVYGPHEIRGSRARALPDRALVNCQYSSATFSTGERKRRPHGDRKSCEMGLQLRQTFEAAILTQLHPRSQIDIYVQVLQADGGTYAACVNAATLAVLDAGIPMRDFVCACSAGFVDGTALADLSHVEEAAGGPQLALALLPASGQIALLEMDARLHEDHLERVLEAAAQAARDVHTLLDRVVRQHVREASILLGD
UniProt Q9UPT5: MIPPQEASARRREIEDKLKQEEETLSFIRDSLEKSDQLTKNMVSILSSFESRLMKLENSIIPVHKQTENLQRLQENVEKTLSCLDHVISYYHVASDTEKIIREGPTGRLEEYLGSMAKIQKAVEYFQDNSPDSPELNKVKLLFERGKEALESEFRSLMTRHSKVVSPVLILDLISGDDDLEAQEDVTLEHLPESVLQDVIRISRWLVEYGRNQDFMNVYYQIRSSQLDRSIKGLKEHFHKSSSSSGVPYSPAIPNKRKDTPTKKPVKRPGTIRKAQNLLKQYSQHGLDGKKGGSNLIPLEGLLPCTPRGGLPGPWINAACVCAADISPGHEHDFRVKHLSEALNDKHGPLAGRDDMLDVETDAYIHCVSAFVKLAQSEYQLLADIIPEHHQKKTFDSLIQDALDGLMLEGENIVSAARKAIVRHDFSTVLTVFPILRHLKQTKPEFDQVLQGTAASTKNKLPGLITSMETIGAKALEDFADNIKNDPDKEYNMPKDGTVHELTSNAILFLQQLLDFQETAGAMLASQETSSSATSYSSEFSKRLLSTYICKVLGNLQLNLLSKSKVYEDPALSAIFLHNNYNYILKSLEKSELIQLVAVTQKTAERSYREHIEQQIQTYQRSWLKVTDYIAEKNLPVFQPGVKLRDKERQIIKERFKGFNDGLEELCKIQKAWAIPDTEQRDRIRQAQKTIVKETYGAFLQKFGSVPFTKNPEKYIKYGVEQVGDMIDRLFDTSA
UniProt Q9H098: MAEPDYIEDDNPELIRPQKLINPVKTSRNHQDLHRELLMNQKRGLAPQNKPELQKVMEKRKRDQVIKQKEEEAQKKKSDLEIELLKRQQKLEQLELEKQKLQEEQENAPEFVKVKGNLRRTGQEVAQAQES
UniProt Q5BKY9: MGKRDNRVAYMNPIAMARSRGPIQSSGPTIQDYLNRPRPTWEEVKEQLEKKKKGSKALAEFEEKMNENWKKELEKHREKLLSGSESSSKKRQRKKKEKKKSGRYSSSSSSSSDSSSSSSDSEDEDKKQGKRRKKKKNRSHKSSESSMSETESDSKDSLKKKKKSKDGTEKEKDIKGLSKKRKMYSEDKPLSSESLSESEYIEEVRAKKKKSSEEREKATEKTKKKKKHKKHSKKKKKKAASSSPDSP
UniProt Q5HYJ3: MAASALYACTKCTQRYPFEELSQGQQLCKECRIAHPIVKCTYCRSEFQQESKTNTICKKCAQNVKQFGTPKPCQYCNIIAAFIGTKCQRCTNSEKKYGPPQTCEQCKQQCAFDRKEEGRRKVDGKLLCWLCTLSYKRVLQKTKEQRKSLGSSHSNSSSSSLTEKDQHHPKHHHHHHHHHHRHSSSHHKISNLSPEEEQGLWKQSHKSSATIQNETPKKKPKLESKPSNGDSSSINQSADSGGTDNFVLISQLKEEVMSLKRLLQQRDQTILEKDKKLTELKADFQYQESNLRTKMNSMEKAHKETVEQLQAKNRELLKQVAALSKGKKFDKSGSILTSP
UniProt Q9NVQ4: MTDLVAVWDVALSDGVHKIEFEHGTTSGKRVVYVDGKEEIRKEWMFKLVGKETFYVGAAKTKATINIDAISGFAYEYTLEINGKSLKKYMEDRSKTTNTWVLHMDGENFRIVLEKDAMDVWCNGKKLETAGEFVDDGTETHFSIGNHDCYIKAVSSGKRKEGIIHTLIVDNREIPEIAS
UniProt Q14320: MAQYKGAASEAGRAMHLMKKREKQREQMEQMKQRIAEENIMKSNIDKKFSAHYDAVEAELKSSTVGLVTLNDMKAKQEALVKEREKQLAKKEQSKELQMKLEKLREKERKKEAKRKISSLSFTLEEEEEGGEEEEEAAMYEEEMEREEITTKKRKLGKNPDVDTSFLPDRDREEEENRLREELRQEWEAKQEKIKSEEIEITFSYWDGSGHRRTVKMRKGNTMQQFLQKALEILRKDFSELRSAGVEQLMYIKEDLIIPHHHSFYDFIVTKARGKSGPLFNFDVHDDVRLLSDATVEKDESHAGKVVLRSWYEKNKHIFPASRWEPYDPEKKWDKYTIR
UniProt Q9BS26: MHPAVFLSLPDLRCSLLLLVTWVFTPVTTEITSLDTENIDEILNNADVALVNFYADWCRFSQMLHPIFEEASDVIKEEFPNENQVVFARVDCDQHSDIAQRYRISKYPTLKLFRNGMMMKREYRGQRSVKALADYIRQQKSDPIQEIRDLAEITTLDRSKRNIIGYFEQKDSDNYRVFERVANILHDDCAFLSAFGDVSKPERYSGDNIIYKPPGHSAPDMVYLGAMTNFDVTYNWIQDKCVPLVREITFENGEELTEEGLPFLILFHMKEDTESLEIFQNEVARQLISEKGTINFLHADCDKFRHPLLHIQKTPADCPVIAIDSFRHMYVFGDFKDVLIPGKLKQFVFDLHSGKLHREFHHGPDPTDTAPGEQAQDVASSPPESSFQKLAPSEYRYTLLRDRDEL
UniProt Q86X53: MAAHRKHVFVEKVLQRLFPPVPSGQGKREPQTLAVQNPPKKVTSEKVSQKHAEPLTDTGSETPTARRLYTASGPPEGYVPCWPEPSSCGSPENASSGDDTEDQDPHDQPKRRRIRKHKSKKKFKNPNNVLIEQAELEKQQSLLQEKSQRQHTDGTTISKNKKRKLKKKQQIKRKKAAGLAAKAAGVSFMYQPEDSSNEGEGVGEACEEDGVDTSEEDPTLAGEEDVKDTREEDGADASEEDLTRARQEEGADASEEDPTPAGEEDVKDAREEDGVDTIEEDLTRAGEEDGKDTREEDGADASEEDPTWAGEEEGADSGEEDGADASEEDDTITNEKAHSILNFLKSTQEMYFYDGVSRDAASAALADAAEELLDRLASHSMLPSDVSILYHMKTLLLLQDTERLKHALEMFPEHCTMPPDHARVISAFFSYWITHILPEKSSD
UniProt Q92520: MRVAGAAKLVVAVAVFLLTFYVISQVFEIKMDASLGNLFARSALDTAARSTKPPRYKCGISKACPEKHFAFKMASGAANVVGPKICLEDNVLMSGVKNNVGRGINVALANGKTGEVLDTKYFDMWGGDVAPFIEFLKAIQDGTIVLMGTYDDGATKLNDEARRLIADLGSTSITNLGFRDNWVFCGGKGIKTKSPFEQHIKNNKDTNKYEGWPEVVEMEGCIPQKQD
UniProt Q9NZB2: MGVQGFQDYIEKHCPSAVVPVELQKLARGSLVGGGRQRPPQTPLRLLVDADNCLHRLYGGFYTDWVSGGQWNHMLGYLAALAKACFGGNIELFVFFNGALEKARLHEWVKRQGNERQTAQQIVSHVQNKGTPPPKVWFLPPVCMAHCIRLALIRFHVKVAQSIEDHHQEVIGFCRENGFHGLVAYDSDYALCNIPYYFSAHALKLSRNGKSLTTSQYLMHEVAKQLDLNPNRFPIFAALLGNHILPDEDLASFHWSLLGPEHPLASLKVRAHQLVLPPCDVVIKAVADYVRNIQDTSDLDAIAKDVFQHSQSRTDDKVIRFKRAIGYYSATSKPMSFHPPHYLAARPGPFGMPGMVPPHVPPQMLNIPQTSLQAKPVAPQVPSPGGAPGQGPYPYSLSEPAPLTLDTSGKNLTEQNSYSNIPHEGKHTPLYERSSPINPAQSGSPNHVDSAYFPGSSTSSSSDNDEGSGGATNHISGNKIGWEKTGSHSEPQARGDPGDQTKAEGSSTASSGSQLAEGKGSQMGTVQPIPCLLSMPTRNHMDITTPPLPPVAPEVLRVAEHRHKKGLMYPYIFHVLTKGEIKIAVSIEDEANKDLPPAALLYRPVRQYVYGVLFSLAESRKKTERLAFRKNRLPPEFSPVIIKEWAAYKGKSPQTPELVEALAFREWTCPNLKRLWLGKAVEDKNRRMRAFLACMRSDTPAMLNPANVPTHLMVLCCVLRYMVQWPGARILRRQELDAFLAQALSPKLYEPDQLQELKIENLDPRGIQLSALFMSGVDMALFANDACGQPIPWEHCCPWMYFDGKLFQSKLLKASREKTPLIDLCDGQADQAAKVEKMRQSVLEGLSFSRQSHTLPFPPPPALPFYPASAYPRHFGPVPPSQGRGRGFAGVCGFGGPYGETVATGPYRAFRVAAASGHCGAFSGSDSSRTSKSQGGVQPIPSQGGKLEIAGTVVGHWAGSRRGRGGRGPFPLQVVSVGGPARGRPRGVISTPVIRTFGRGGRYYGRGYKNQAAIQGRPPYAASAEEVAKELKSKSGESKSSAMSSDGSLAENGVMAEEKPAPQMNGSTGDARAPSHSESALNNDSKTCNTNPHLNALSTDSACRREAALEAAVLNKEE
UniProt O60447: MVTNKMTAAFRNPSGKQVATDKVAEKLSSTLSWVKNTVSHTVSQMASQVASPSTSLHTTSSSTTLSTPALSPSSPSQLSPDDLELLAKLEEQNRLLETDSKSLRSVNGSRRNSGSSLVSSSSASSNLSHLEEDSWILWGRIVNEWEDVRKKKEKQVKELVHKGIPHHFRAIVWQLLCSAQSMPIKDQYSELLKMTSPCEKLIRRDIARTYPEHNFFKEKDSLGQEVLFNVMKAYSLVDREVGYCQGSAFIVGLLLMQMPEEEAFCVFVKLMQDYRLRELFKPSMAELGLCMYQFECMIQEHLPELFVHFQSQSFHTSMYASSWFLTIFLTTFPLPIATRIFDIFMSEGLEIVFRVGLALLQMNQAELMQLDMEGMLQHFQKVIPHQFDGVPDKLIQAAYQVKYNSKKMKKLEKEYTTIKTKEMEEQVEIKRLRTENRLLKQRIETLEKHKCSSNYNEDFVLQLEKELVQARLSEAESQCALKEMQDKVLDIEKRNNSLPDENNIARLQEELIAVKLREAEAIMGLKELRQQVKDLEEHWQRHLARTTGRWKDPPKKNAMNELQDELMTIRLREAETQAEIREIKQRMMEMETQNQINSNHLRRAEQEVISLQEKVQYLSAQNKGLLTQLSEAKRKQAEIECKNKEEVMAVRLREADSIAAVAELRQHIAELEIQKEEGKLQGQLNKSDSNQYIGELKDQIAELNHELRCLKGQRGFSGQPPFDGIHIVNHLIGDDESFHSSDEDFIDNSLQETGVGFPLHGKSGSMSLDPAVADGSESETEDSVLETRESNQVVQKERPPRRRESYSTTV
UniProt O00471: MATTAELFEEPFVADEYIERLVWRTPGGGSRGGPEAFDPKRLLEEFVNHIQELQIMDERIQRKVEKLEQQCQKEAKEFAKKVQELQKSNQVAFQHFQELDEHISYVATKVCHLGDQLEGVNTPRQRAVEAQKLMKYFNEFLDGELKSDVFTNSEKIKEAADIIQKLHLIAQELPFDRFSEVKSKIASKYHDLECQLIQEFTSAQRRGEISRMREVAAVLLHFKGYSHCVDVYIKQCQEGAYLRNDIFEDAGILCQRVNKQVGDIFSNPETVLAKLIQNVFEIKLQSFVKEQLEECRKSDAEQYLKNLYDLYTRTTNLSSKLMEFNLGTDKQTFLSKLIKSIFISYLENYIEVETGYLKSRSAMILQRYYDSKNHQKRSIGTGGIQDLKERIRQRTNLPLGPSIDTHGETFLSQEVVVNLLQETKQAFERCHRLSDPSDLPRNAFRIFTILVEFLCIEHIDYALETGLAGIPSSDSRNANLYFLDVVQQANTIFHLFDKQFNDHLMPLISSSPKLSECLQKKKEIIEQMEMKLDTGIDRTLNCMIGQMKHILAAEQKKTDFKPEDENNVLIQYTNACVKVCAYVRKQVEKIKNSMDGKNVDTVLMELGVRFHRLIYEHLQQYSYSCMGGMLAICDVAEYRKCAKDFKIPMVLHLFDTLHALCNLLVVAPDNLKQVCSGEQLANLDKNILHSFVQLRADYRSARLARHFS
UniProt Q6P2I3: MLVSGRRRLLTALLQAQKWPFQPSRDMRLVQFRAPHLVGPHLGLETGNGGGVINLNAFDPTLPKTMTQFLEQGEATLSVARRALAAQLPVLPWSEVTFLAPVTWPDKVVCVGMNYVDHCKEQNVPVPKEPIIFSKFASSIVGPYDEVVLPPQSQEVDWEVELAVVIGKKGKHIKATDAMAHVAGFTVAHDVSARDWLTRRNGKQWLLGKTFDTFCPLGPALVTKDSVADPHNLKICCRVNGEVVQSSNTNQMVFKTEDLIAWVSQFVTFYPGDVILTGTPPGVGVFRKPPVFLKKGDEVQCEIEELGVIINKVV

Compound: O=C(O)c1ccc2c(c1)nc(Nc1cccc(Cl)c1)c1ccncc12 [silmitasertib]
Assay: log2 fold change, soluble protein after heating vs DMSO (PISA); higher = thermal stabilisation; K562 lysate, 10 uM; active = over 0.2 and 3.5 SD of the protein, either way, in both replicates (recomputed)
Method in brief: (§1)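 Following dounce homogenisation of K562 pellets in PBS pH 7.4 with 1 mM MgCl2, crude extract at 1 mg/mL protein was incubated for 30 min with 10 μM compound. Aliquots were then heated for 3 min over 48°C-58°C and pooled, NP-40 was added to 0.5% at 4°C, and soluble protein was recovered as the supernatant at 21,000xg for 90 min. Channel-sum-equalised TMTpro 16plex LC-MS/MS quantified this protein. Each value, from duplicates, is a log-two fold change in thermal stability relative to solvent controls.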

log2 fold change, inactive:
FAAP100 (UniProt Q0VG06) -0.009
ERVK3-1, A0A0U1RQV1 -0.062
ESD (UniProt P10768) -0.008
EXOSC4 (UniProt Q9NPD3) 0.007
EXOC7 (UniProt Q9UPT5) 0.025
FAM118B (UniProt Q9BPY3) 0.018
FAM107B isoform 2 (UniProt Q9H098) -0.09
FAM133B (UniProt Q5BKY9) -0.052
FAM76B (UniProt Q5HYJ3) 0
F5 (UniProt P12259) -0.002
FAIM isoform 2 (UniProt Q9NVQ4) -0.094
FAM50A (UniProt Q14320) -0.005
FAM241A (UniProt Q8N8J7) 0.071
ERLEC1 (UniProt Q96DZ1) 0.04
EXOSC9 (UniProt Q06265) 0.004
FAM78A (UniProt Q5JUQ0) 0.015
EXTL2 (UniProt Q9UBQ6) -0.053
ETFB (UniProt P38117) -0.013
ERP44 (UniProt Q9BS26) 0.01
FAM111A (UniProt Q96PZ2) 0.1
ERLIN1 (UniProt O75477) 0.064
ESPL1 (UniProt Q14674) 0.098
ERICH1 (UniProt Q86X53) -0.127
EXOSC1 (UniProt Q9Y3B2) -0.008
FAM3A (UniProt P98173) -0.003
ERP29 (UniProt P30040) -0.024
FAM3C (UniProt Q92520) -0.018
ERMP1 (UniProt Q7Z2K6) -0.021
FAM160B1 (UniProt Q5W0V3) 0.01
FAH (UniProt P16930) -0.033
FAM120A isoform 6 (UniProt Q9NZB2) -0.016
ETHE1 (UniProt O95571) 0.009
EVI5 isoform 2 (UniProt O60447) -0.037
ETNK1 (UniProt Q9HBU6) -0.012
EXOC5 (UniProt O00471) 0.036
FAM160A2 isoform 2 (UniProt Q8N612) 0.188
FAHD2B (UniProt Q6P2I3) -0.086
FAF1 (UniProt Q9UNN5) -0.001

Compound: O=C1NC(=O)C(c2cnc3ccccn23)=C1c1cn2c3c(cc(F)cc13)CN(C(=O)N1CCCCC1)CC2
Assay: as above
Method in brief: as §1

log2 fold change, inactive:
FAAP100 (UniProt Q0VG06) 0.002
ERVK3-1, A0A0U1RQV1 0.047
ESD (UniProt P10768) -0.004
EXOSC4 (UniProt Q9NPD3) 0.008
EXOC7 (UniProt Q9UPT5) 0.023
FAM118B (UniProt Q9BPY3) 0
FAM107B isoform 2 (UniProt Q9H098) 0.04
FAM133B (UniProt Q5BKY9) -0.043
FAM76B (UniProt Q5HYJ3) 0.012
F5 (UniProt P12259) 0.034
FAIM isoform 2 (UniProt Q9NVQ4) 0.115
FAM50A (UniProt Q14320) -0.056
FAM241A (UniProt Q8N8J7) -0.006
ERLEC1 (UniProt Q96DZ1) -0.002
EXOSC9 (UniProt Q06265) -0.005
FAM78A (UniProt Q5JUQ0) -0.018
EXTL2 (UniProt Q9UBQ6) 0.01
ETFB (UniProt P38117) 0.016
ERP44 (UniProt Q9BS26) -0.012
FAM111A (UniProt Q96PZ2) 0.048
ERLIN1 (UniProt O75477) 0.03
ESPL1 (UniProt Q14674) 0.057
ERICH1 (UniProt Q86X53) 0.077
EXOSC1 (UniProt Q9Y3B2) 0.04
FAM3A (UniProt P98173) -0.107
ERP29 (UniProt P30040) -0.006
FAM3C (UniProt Q92520) 0.038
ERMP1 (UniProt Q7Z2K6) 0.015
FAM160B1 (UniProt Q5W0V3) 0.018
FAH (UniProt P16930) 0.052
FAM120A isoform 6 (UniProt Q9NZB2) 0.005
ETHE1 (UniProt O95571) 0
EVI5 isoform 2 (UniProt O60447) 0.167
ETNK1 (UniProt Q9HBU6) 0.084
EXOC5 (UniProt O00471) 0.002
FAM160A2 isoform 2 (UniProt Q8N612) -0.006
FAHD2B (UniProt Q6P2I3) -0.033
FAF1 (UniProt Q9UNN5) -0.036
